No constants are given. Whether binding was seen depends on the method and setting. Some entries that bind do so weakly or less than the wild type.
Target: human recombinant TFPI (tissue factor pathway inhibitor) (human) (UniProt P10646)
Assay: inhibition of amidolytic activity by TFPI, chromogenic substrate PNAPEP 1025

Amino acid sequences for entries named in this document (tags omitted). A change or cut given only in a name is not applied to a line headed by its entry. Residues count along the entry.
UniProt P10646, residues 29-282: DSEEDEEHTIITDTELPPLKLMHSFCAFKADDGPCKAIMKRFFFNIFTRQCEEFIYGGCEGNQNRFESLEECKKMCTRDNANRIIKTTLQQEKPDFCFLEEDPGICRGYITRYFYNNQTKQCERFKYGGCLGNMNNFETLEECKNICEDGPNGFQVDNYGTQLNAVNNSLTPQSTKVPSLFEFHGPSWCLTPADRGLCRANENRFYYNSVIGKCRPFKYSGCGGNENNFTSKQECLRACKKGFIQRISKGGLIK
UniProt P00742: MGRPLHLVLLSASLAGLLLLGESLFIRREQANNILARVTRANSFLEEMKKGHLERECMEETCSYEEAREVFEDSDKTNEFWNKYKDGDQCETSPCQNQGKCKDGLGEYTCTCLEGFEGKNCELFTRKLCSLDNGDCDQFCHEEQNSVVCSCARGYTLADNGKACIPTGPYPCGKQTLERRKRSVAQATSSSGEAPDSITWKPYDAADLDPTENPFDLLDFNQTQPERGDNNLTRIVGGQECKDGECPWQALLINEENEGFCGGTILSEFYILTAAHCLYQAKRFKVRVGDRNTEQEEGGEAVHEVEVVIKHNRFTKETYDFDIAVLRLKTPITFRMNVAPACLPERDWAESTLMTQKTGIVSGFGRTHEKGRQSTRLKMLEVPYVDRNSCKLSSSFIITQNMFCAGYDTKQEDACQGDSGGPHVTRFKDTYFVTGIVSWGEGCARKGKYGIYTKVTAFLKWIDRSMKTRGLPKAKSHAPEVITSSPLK

binding: binds
Substance: human GDXa (Gla Domainless FXa, modified factor Xa) (from UniProt P00742 85-179; P00742 235-488) (enzyme)

Reference: patent US20140050716A1
